Our source for the binding signal values is PMC7862700.

The chains behind the UniProt entries cited, without tags or fusion partners. Where a name states a change or a piece, a line headed by the entry shows the natural chain unless it says otherwise.
UniProt Q00613: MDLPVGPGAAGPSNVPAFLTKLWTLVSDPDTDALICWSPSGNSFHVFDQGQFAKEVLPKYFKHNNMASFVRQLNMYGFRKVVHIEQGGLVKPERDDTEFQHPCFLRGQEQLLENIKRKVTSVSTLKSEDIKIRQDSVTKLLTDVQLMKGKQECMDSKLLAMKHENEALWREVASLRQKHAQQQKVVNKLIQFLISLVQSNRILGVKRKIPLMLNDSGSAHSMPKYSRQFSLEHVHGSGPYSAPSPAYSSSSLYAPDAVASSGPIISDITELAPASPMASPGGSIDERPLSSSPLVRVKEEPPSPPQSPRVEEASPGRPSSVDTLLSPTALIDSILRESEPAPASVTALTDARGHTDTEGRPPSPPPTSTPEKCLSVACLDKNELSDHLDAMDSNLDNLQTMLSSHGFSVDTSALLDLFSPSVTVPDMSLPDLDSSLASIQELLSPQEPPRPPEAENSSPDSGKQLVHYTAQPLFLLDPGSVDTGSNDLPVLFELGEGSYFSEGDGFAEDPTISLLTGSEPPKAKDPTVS

The entries are a selection whose mix differs from that of the whole data set. For some assays here: At the low end of the ranking the order means little. Some of the results follow. For some assays here: The exact form of the protein is not confirmed.

One assay deals with HSF1 (UniProt Q00613). Description: DAPPL (digital affinity profiling via proximity ligation, sequencing). To be noted: 10 mM Tris-HCl pH 7.5, 50 mM NaCl, 1 mM DTT, 4% glycerol, room temperature, 30 min; GST-TFs on glutathione beads, 16-mer random dsDNA library, 0.1% …; high values mean tight binding; double strand, one strand shown; scale: fold enrichment (6-mer frequency, TF over GST control).
CAAATG returned a binding signal of 0.998.

The sequence AGTACG returned a binding signal of 0.754.

As to TTGAGC, the binding signal was 1.03.

The sequence CCGCCG showed a binding signal of 0.968.

ACCCGG returned a binding signal of 0.798.

TCCATG gave a binding signal of 1.1.

In the case of GCTGTT, the binding signal turned out to be 0.909.

The sequence ACAAGT came in with a binding signal of 0.775.

The sequence TTATGC had a binding signal of 1.58.

On to TGTTCG, for which the binding signal was 1.6.

Sequence GATGGG yielded a binding signal of 0.821.

The sequence CCGGCG displayed a binding signal of 0.68.

The sequence GTATCG showed a binding signal of 0.857.

Sequence GTCTTG showed a binding signal of 0.825.

Take GAAATT: the binding signal turned out to be 1.48.

Consider TGCTCC, for which the binding signal amounted to 1.27.

In the case of CTGTTG, the binding signal was determined as 0.9.

Consider TTTTAG, for which the binding signal was 1.19.

For GATTAA, the binding signal is 2.83.

Sequence CACACC came in with a binding signal of 0.757.

Sequence GTCCTT had a binding signal of 0.953.

Regarding TAGAAT, the binding signal was 3.07.

In turn, GGCTTG yielded a binding signal of 0.886.

With GTCACC, the binding signal was found to be 0.662.

In the case of ACTGAC, the binding signal was determined as 0.943.

ATGCCG registered a binding signal of 0.931.

Sequence GAAAGG showed a binding signal of 0.957.

TGCGGT displayed a binding signal of 0.798.

Consider AGGATG, for which the binding signal was 0.83.

Sequence GGACTT displayed a binding signal of 0.973.

In turn, GCAAAG gave a binding signal of 0.946.

Sequence CATCCT gave a binding signal of 1.12.

In turn, CGAACG gave a binding signal of 1.2.

Turning to GTTGTA, the binding signal is 0.853.

GTACCT showed a binding signal of 0.985.

For the sequence TTAAGA, the binding signal is 1.95.

Consider CTATGT, for which the binding signal is 0.949.

Consider CCCGCT, for which the binding signal amounted to 1.26.

Sequence TGACTG yielded a binding signal of 0.943.

CGCCTA: the binding signal worked out at 1.15.

The next assay deals with T1, ELF2 (UniProt Q15723).
T1 sequence: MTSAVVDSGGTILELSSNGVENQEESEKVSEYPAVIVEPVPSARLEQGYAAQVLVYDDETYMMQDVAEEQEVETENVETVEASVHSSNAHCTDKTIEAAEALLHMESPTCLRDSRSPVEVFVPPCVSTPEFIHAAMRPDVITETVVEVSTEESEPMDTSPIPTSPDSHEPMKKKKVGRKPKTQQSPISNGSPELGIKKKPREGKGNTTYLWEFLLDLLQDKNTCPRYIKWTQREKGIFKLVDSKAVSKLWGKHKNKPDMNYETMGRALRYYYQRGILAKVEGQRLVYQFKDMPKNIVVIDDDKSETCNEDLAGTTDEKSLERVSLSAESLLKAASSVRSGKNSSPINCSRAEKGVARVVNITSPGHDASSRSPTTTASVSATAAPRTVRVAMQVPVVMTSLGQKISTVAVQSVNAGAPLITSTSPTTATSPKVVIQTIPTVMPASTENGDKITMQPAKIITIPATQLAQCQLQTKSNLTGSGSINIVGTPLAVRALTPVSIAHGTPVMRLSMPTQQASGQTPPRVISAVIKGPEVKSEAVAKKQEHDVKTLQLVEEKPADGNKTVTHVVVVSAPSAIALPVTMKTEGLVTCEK
The description is as above. The settings on record: 10 mM Tris-HCl pH 7.5, 50 mM NaCl, 1 mM DTT, 4% glycerol, room temperature, 30 min; GST-TFs on glutathione beads, 16-mer random dsDNA library, 0.1% …; high values mean tight binding; double strand, one strand shown; scale: fold enrichment (6-mer frequency, TF over GST control).
In the case of CAAATG, the binding signal worked out at 1.13.

For AGTACG, the binding signal was 0.979.

Regarding TTGAGC, the binding signal amounted to 1.

Regarding CCGCCG, the binding signal was 1.21.

ACCCGG had a binding signal of 2.69.

Sequence TCCATG returned a binding signal of 1.07.

With GCTGTT, the binding signal was found to be 1.1.

In turn, ACAAGT yielded a binding signal of 0.912.

Regarding TTATGC, the binding signal is 1.27.

As for TGTTCG, the binding signal came to 1.04.

As to GATGGG, the binding signal was 0.928.

Take CCGGCG: the binding signal is 0.922.

Take GTATCG: the binding signal amounted to 0.892.

Sequence GTCTTG showed a binding signal of 0.984.

In turn, GAAATT returned a binding signal of 1.47.

The sequence TGCTCC displayed a binding signal of 1.24.

For the sequence CTGTTG, the binding signal came out at 1.07.

Sequence TTTTAG displayed a binding signal of 1.13.

In turn, GATTAA returned a binding signal of 1.03.

On to CACACC, for which the binding signal worked out at 1.02.

Sequence GTCCTT came in with a binding signal of 1.25.

The sequence TAGAAT came in with a binding signal of 1.09.

GGCTTG returned a binding signal of 0.969.

Regarding GTCACC, the binding signal amounted to 0.892.

In turn, ACTGAC gave a binding signal of 1.16.

Sequence ATGCCG came in with a binding signal of 1.12.

The sequence GAAAGG yielded a binding signal of 0.923.

The sequence TGCGGT registered a binding signal of 0.934.

Sequence AGGATG gave a binding signal of 1.1.

GGACTT returned a binding signal of 1.27.

Turning to GCAAAG, the binding signal is 0.881.

In the case of CATCCT, the binding signal was found to be 1.67.

For the sequence CGAACG, the binding signal is 0.976.

For the sequence GTTGTA, the binding signal is 0.965.

On to GTACCT, for which the binding signal stood at 1.17.

TTAAGA showed a binding signal of 0.99.

CTATGT: the binding signal was 1.07.

Regarding CCCGCT, the binding signal turned out to be 1.24.

TGACTG had a binding signal of 0.984.

Take CGCCTA: the binding signal amounted to 1.16.
